According to article PMC5056749:
These are yes or no findings as the source states them, for the method shown. In cells and extracts the contact can be indirect. Some results given as binding are weak or reduced against the parent protein; the word gives no strength.

The chains behind the UniProt entries cited, without tags or fusion partners.
UniProt P17096: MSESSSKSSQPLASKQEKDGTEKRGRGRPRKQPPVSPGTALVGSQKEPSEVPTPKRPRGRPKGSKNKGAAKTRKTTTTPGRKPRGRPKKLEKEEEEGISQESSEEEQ
UniProt P13010: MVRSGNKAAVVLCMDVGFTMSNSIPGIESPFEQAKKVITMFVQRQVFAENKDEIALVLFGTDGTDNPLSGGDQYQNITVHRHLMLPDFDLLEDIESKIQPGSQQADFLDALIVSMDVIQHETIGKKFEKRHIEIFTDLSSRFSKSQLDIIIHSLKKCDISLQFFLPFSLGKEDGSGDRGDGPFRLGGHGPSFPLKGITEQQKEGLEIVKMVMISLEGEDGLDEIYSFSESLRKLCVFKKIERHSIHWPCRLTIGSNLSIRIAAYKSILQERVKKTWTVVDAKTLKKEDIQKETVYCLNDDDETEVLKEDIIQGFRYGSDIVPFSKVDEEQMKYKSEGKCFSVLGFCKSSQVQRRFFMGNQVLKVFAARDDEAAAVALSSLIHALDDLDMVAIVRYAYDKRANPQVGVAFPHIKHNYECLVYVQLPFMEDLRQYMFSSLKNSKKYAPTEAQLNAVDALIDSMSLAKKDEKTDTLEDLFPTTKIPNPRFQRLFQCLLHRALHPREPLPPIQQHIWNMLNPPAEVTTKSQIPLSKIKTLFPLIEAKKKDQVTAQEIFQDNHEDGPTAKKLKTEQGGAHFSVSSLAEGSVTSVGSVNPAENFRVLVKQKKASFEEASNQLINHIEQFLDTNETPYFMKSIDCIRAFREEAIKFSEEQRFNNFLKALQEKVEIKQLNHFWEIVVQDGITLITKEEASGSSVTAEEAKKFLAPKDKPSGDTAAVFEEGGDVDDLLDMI
UniProt P78527: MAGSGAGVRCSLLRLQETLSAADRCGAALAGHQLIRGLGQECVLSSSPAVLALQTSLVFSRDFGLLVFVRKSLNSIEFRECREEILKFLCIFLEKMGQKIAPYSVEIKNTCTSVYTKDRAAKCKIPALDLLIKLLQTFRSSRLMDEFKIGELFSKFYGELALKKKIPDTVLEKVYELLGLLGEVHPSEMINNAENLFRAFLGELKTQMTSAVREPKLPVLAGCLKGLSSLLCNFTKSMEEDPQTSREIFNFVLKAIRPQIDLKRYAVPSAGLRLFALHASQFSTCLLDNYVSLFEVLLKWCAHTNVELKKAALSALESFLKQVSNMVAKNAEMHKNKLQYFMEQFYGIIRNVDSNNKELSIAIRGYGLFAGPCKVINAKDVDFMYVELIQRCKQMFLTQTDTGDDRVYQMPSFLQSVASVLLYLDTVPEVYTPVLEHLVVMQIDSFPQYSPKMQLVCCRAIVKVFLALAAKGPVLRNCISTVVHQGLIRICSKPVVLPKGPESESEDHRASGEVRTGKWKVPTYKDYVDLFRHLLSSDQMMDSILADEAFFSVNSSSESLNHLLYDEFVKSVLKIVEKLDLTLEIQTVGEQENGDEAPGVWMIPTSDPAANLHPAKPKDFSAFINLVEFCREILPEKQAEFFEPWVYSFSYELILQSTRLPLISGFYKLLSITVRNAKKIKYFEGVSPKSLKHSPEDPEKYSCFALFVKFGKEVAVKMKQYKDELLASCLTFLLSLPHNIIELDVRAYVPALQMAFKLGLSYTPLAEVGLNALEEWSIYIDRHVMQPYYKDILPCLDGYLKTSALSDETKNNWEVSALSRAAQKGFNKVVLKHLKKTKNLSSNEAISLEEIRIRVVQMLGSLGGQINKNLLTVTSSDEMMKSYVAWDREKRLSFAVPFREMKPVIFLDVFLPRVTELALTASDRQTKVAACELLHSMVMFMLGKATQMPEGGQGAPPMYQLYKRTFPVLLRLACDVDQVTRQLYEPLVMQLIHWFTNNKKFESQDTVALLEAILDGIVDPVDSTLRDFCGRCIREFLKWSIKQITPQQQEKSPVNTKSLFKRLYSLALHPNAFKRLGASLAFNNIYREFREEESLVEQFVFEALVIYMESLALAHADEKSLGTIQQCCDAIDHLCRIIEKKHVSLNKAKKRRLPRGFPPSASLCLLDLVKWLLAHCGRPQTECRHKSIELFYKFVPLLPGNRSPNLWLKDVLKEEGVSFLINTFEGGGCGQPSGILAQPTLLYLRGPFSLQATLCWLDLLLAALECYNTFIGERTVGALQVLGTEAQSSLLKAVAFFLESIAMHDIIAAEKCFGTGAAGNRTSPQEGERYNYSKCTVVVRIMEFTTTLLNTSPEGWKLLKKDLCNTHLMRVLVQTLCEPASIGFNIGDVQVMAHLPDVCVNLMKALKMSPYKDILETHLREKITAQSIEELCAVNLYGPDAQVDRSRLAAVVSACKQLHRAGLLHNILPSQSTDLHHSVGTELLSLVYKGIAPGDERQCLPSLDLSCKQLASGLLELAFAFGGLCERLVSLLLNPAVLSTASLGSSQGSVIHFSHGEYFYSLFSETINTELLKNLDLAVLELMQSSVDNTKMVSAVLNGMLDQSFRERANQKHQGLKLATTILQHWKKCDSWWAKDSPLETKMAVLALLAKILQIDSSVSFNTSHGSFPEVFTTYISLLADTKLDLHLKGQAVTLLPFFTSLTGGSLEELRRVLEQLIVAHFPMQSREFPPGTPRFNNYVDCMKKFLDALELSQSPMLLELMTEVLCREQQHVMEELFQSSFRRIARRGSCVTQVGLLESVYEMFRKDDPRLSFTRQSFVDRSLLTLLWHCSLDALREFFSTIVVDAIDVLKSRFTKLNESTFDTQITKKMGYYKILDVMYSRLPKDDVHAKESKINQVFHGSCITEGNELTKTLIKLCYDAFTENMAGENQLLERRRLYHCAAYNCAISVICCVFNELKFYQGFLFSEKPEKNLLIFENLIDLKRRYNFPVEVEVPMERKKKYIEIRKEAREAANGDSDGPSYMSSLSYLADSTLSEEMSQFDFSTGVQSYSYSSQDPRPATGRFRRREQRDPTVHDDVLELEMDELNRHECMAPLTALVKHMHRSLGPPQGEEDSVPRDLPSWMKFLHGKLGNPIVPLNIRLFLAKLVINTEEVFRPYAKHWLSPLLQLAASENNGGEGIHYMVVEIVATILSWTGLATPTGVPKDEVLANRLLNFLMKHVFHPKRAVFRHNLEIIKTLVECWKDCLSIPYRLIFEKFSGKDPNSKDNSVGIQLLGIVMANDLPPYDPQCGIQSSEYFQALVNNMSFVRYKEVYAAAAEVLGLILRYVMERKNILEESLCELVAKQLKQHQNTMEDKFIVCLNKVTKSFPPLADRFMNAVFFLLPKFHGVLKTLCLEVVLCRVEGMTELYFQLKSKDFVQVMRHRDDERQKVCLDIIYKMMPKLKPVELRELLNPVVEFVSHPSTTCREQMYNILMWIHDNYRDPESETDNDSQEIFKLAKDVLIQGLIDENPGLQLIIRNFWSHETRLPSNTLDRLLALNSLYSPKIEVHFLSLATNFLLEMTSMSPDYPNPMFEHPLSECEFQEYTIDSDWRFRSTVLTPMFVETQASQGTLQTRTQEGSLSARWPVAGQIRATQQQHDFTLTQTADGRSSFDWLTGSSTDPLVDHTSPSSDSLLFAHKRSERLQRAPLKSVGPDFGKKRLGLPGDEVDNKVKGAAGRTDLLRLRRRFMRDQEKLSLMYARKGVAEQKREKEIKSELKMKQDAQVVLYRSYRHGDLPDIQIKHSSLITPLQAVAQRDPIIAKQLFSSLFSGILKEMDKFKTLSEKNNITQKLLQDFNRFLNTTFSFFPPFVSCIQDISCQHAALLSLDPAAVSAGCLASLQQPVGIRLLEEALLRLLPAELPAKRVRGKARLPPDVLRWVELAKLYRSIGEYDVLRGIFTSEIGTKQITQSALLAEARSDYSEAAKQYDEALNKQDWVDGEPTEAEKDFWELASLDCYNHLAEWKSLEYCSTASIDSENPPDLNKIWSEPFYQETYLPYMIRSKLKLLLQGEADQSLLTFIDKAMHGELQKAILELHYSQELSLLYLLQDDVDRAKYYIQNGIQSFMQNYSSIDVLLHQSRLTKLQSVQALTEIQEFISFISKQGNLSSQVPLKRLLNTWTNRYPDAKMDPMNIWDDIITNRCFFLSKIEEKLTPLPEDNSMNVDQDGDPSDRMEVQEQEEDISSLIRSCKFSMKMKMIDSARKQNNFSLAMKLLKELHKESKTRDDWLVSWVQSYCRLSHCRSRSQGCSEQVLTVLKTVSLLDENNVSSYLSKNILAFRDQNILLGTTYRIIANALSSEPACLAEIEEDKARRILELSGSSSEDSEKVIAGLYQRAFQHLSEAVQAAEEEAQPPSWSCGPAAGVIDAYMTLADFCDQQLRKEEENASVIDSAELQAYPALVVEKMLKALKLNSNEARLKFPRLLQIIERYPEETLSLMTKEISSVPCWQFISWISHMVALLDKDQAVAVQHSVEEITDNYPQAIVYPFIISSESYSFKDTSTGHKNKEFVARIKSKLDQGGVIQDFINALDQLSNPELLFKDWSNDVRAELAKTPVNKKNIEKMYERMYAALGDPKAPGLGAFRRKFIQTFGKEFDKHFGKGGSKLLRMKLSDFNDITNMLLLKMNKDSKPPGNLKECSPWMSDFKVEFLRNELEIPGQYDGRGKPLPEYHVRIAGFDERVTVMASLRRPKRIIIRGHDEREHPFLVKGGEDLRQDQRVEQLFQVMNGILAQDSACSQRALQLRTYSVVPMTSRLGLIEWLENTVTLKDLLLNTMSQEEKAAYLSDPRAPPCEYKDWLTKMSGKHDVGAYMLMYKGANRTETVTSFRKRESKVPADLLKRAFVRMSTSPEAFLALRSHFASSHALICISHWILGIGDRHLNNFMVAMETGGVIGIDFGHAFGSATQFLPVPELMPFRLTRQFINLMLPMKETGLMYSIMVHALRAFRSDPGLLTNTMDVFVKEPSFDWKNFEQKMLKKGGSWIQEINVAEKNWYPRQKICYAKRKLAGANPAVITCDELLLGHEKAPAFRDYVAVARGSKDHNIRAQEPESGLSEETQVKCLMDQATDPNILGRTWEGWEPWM

Experiments:
[1] = target: HMGA1 (High Mobility Group A1), endogenous (human (endogenous in MDA-MB-231)) (UniProt P17096); test: co-IP; endogenous proteins; 500 ug MDA-MB-231 lysate, untreated or incubated with 50 ug/ml ethidium bromide (complex still present at lower levels); precipitated with 4 ug rabbit polyclonal anti-HMGA1 (aspecific IgG as control); immunoblot for Ku70 and Ku80
[2] = target: HMGA1a fused to MBP (Maltose Binding Protein) (human) (UniProt P17096); test: pull-down; co-affinity purification (Co-AP): MBP-HMGA1a or MBP alone expressed in HEK 293T cells by transient transfection, lysates incubated with amylose resin, bound proteins eluted with SDS sample buffer; western blot for Ku70, Ku80, Ligase IV and DNA-PKcs

binding [1] | binding [2] | Substance
binds | binds | Ku80 (from UniProt P13010 1-732)
 | binds | DNA-PKcs, the catalytic subunit of DNA-PK (DNA-dependent Protein Kinase) (from UniProt P78527 1-4128) (enzyme)
